Key:
[1] = system: SH-SY5Y cells; assay: Cell protection effect in nerve cell line (MTT assay), Aβ42 toxicity; assay type: cell-based; settings: Donepezil 10 μM
Protocol: The cytoprotective effect of herbal mixed extracts was measured using a MTT (3-(4,5-Dimethylthiazol-2-yl)-2,5-Diphenyltetrazolium Bromide) assay in a model that causes toxicity to nerve cell lines by artificially aggregated Aβ42.

[2] = system: beta amyloid (Aβ40); assay: Measurement of beta amyloid production in brain (ELISA), normal animals; assay type: in vivo, ICR mouse; settings: extracts 100 mg/kg, Donepezil 1 mg/kg
[3] = system: NGF (Nerve Growth Factor); assay: NGF level measurement in brain (ELISA), normal animals; assay type: in vivo, ICR mouse; settings: extracts 100 mg/kg, Donepezil 1 mg/kg
[4] = normal mice, 5 days administration, brain, per 1 mg protein

For COc1cc2c(cc1OC)C(=O)C(CC1CCN(Cc3ccccc3)CC1)C2 (stereo not drawn) [Donepezil], the “cytoprotective activity, in words” value ([1]; SH-SY5Y cells, Aβ42) was “low level of cytoprotective activity”, the “MTT measurement value (% of Normal)” value ([1]; differentiated SH-SY5Y cells, Aβ42 48 hours, extracts 10 μg/ml) was 65.3 % of Normal and the “effect on beta amyloid production, in words” value ([2]; normal mice brain) was “did not affect beta amyloid production”. The “Aβ40 concentration” value [2, 4] was 168.8 pg/mg, the “effect on NGF production in brain, in words” value ([3]; normal mice brain) was “did not affect NGF production” and the “NGF concentration” value [3, 4] was 258.0 pg/mg.

Source: patent publication US10946053B2, “Composition containing mixed extract of mulberry and Poria cocos bark for preventing, improving or treating neurodegenerative disorders” (NeuroBo Pharmaceuticals, Inc., priority 2014, dated 2021)
